Data reported in publication PMC13480958.
Results are given in words; binding and its absence hold for the method and conditions named. In cells and extracts the contact can be indirect. Some results given as binding are weak or reduced against the parent protein; the word gives no strength. Sequences can lack the tags named with a protein.

Sequences of proteins named here, by UniProt entry; tags and fusion partners are left off.
UniProt P30052: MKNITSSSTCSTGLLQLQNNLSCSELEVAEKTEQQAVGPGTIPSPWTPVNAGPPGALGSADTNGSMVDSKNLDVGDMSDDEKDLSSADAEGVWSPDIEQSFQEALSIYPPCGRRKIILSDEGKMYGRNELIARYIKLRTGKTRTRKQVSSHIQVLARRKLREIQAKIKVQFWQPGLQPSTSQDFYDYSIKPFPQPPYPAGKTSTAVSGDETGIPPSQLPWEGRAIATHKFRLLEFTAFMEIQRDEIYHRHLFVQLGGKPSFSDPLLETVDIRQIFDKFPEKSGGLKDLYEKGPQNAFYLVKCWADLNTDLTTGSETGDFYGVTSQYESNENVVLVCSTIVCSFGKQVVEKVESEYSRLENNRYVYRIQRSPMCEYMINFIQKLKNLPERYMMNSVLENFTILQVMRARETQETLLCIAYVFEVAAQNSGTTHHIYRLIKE

Target: T1, Vg:V5:6xHis (Vestigial) (Drosophila) (UniProt Q26366)
T1 sequence: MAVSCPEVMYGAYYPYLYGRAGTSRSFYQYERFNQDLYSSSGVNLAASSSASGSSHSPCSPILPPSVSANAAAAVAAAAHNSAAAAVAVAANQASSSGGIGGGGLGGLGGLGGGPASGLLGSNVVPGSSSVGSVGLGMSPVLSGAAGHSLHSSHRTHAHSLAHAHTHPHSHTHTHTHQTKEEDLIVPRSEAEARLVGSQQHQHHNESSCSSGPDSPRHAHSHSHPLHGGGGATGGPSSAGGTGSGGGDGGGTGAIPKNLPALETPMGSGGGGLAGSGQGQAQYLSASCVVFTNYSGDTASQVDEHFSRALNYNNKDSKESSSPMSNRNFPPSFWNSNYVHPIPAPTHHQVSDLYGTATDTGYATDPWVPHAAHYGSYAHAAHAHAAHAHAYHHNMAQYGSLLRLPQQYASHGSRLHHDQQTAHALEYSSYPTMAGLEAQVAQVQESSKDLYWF
Test: co-IP; lysates (RIPA buffer) of S2 cells co-expressing Atro, Vg and Sd; Vg:V5 precipitated with V5-Trap magnetic agarose beads, 1 h; western blot

binding: binds
Substance: Sd:Myc (Scalloped) (from UniProt P30052 1-440)
